Binding data for 3 substances are collected here from PMC4161973.

Chains of the proteins cited; added tags and fusions are not shown. Lines headed by an entry give the natural chain unless they say otherwise; changes in a name come on top.
UniProt P39938: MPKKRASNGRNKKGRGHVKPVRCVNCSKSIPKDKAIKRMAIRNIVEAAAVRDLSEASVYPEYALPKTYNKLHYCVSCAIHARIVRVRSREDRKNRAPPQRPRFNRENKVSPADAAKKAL

The target in experiment [1] is T1, GST-Kap104 (S. cerevisiae) (UniProt P38217).
T1 sequence: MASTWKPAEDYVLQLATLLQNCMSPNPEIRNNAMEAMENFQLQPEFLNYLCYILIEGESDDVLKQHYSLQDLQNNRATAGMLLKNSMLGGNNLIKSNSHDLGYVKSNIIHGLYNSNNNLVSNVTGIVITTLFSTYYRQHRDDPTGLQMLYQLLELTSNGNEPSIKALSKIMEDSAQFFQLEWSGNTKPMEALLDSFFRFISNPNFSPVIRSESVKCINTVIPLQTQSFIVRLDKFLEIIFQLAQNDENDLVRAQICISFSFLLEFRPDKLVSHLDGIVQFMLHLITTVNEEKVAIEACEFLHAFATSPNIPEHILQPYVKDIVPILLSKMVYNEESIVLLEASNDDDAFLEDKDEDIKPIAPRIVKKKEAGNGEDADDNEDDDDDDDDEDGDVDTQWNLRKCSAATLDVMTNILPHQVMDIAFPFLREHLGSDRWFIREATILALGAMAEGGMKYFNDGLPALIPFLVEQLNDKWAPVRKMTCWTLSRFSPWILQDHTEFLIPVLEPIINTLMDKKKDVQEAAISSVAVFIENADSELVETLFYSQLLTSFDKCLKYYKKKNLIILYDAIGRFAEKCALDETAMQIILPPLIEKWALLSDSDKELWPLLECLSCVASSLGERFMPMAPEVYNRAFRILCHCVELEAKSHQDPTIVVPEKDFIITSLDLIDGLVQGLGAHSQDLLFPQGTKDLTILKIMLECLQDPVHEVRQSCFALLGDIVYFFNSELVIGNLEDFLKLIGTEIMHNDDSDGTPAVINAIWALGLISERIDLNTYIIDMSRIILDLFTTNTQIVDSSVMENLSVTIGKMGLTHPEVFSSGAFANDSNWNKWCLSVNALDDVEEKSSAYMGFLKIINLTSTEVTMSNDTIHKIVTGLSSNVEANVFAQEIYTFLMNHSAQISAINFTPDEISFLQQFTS
Put plainly: pull-down; GST-importins immobilised on Glutathione Sepharose, incubated with E. coli lysate containing ∼4 µM eS26^FLAG (or its mutants, or GFP-eS26) in PBSKMT with competing E. coli lysates for 1 hr at 4°C; Coomassie Blue staining or Western; only the target purified.

A further experiment concerns the target T2, GST-Pse1 (S. cerevisiae) (UniProt P32337).
T2 sequence: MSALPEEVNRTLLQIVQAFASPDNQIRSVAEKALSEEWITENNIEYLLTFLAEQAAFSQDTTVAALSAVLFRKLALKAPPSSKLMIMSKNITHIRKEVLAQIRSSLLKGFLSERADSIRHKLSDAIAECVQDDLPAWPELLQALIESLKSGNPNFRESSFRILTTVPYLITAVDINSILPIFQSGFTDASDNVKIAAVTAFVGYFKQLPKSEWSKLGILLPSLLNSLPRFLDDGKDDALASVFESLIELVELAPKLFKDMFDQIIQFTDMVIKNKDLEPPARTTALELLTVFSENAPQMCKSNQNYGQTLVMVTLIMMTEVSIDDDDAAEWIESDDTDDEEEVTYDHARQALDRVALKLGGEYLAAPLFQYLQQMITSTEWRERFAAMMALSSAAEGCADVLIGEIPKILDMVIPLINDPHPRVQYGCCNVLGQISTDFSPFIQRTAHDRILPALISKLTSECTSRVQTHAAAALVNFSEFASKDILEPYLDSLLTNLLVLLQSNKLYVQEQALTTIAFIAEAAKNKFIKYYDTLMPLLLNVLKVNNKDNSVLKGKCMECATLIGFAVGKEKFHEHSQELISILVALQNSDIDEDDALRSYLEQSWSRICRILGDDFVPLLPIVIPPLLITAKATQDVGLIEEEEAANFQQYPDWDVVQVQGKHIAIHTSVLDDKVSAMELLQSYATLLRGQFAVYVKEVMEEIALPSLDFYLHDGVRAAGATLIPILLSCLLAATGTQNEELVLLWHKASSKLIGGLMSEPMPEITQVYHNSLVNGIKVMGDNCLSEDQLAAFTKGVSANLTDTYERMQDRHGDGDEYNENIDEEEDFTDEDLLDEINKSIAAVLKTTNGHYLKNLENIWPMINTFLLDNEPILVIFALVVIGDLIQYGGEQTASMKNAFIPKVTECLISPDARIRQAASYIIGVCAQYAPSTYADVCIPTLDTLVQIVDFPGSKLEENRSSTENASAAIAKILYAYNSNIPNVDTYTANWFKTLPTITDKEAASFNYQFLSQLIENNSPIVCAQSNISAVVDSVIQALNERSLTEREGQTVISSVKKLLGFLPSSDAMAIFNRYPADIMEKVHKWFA
The description is as above.

Experiment [2] concerns the target T3, GST-Kap123 (S. cerevisiae) (UniProt P40069).
T3 sequence: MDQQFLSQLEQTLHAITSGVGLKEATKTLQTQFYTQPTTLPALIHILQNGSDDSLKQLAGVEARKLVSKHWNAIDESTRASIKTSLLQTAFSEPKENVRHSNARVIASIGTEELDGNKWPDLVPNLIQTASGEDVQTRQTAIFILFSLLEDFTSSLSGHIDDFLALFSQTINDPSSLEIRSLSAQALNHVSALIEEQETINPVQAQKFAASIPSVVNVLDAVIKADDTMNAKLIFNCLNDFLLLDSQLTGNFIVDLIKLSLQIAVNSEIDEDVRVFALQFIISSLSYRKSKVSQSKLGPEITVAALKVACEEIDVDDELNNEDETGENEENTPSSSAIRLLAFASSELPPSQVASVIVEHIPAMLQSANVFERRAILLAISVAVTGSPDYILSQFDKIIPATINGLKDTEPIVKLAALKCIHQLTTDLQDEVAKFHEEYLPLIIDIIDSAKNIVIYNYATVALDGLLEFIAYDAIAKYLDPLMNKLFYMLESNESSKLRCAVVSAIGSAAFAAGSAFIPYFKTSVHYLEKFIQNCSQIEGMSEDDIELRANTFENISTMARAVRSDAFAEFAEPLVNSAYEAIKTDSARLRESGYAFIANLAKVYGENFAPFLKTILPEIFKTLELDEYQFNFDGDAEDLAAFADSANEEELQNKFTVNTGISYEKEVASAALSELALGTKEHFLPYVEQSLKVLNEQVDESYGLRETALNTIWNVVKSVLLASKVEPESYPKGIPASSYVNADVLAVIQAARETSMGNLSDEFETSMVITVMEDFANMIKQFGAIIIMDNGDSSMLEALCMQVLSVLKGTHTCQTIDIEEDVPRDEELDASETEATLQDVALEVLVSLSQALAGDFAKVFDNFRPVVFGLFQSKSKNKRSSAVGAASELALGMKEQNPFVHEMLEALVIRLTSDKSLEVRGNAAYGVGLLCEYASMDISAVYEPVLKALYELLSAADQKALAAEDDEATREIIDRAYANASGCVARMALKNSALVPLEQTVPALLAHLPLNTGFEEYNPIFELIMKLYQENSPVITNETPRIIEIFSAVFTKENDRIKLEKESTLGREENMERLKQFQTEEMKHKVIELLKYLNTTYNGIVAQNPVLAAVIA
Described as above.

The target in the next experiment is T4, Pno1-TAP (S. cerevisiae) (UniProt Q99216).
T4 sequence: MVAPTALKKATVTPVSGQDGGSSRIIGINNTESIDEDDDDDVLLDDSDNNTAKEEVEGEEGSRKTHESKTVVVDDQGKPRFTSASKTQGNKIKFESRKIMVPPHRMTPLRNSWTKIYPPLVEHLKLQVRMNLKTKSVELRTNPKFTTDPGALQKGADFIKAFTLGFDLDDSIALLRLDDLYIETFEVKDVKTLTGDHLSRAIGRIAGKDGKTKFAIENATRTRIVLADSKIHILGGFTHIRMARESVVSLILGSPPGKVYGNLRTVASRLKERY
Put plainly: co-IP; tandem affinity purification of pre-ribosomal particles by TAP-tagged baits from yeast (WT and, for Enp1-TAP, Tsr2-depleted cells); Calmodulin-eluates analysed by Western.

Experiment [3] addresses T3, GST-Kap123 (S. cerevisiae). Put plainly: pull-down; dissociation assay, 1 hr: GST-importin:r-protein^FLAG complexes pre-formed on Glutathione Sepharose (r-protein from E. coli lysate) incubated with buffer alone, 1.5 µM RanGTP, 1.5 µM Tsr2 or His6-Tsr2, or 3 nM 3'-end of 18S rRNA for 1 hr at 4°C; only the target purified.

These are yes or no findings as the source states them, for the method shown. Binding seen in cells or lysates may run through a third protein. A result given as binding can be weak or reduced; the word gives no strength. For some assays here: Tags and fused reporters may be left off the sequences shown.

In the case of GFP-eS26 (from UniProt P39938), the binding entry (in experiment [1]; with GST-Pse1 (S. cerevisiae); in experiment [2]) was “binds” throughout.

“eS26 (yeast Rps26), endogenous (from UniProt P39938)”: the binding entry with Pno1-TAP (S. cerevisiae) was “binds”.

Take uS14^FLAG (S. cerevisiae): the binding entry in experiment [3] is “binds”.
